Experimental data as given in paper PMC9050647.
These are yes or no findings as the source states them, for the method shown. In cells and extracts the contact can be indirect. Some entries that bind do so weakly or less than the wild type. Values belong to the molecule of their own block, whether it stands above or below them.

Amino acid sequences for entries named in this document (tags omitted).
UniProt O15105: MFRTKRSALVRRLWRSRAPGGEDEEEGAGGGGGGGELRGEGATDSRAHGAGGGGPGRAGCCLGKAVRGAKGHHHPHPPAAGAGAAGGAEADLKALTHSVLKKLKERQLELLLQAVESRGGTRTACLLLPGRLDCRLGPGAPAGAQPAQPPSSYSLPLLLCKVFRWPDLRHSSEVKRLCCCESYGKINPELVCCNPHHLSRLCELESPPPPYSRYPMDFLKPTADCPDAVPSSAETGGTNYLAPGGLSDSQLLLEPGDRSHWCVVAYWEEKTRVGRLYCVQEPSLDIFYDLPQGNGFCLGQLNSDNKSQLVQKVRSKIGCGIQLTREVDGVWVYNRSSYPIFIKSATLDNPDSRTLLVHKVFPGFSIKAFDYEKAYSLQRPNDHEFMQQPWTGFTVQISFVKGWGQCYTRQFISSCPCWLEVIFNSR
UniProt O14753: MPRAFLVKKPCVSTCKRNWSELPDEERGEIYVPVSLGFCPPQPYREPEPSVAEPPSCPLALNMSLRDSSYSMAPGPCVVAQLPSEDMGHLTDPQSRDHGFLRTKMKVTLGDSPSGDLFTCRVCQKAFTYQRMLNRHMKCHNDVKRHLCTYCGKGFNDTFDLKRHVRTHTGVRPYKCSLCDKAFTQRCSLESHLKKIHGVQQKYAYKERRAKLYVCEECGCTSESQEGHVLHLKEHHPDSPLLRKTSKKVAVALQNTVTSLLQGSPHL
UniProt Q15796: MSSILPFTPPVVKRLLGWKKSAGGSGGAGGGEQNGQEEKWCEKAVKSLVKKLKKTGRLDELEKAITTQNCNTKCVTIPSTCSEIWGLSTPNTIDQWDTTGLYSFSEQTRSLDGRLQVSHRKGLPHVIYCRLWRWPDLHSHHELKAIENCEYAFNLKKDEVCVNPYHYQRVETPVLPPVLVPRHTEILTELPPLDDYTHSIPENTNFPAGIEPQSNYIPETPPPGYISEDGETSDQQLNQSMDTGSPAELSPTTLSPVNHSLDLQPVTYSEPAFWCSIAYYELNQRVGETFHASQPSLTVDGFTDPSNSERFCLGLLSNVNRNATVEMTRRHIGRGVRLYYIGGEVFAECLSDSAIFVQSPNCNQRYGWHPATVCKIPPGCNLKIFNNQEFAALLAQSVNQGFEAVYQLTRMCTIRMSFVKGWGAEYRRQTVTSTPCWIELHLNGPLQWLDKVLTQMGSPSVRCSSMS
UniProt P84022: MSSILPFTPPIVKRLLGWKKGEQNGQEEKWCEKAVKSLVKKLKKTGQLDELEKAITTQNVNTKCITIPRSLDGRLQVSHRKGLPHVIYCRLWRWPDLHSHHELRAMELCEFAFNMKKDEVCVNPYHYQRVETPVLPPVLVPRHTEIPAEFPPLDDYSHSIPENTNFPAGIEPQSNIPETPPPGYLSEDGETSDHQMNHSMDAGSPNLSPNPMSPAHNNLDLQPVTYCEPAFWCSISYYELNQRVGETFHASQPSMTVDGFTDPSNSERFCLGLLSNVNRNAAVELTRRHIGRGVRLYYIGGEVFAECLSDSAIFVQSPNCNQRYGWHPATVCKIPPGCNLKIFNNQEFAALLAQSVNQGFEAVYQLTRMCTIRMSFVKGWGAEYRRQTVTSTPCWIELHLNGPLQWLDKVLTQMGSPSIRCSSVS
UniProt Q13485: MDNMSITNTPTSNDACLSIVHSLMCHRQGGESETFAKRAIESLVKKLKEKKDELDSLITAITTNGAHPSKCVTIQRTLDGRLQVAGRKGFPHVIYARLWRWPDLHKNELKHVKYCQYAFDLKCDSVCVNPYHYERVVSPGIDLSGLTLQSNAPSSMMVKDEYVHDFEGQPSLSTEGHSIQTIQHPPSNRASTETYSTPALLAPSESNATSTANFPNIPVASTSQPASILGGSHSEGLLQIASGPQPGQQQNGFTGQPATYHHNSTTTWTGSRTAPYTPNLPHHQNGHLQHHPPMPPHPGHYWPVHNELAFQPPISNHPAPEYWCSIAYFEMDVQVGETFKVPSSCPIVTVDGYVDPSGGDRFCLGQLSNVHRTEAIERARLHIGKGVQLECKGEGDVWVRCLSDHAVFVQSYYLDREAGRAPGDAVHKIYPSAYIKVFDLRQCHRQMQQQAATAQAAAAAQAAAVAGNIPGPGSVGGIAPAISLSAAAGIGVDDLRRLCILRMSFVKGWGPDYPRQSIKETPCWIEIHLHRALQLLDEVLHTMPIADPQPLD
UniProt Q9BRP0: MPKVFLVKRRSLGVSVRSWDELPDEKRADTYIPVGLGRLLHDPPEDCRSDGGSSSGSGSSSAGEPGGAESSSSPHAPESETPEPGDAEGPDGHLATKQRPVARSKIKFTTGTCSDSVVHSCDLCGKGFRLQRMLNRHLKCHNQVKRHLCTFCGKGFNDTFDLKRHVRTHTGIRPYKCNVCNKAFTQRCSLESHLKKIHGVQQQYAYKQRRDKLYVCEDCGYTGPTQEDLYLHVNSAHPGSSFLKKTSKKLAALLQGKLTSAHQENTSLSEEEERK

What was measured:
[1] = molecular target: SMAD7 (endogenous) (human (endogenous in MCF10A-M2)) (UniProt O15105); test: co-IP; endogenous proteins, MCF10A-M2 lysate in TNE buffer; antibody against SMAD7 overnight at 4 °C, then Protein G agarose 2 h; IgG isotype as control
[2] = molecular target: FLAG-tagged full-length OVOL1 (human) (UniProt O14753); test: co-IP; HEK293T cells transfected with both partners; TNE lysis buffer (50 mM Tris-HCl pH 7.4, 1 mM EDTA, 150 mM NaCl, 1% NP40); anti-FLAG agarose beads, 30 min, 4 °C; western blotting
[3] = molecular target: SMAD7 (construct not shown; Supplementary Fig. 7d and 8a) (UniProt O15105); test: co-IP; OVOL2 with SMADs (Supplementary Fig. 7d); cells, tags and who was precipitated not shown
[4] = molecular target: SMAD2 (UniProt Q15796); test: as above
[5] = molecular target: SMAD3 (UniProt P84022); test: as above
[6] = molecular target: SMAD4 (UniProt Q13485); test: as above
[7] = molecular target: SMAD7 (construct not shown; Supplementary Fig. 7d and 8a) (UniProt O15105); test: co-IP; SMAD7 with E3 ligases or DUBs, without or with ectopic expression of OVOL1 (Supplementary Fig. 8a); cells, tags and who was precipitated not shown
[8] = molecular target: FLAG-tagged full-length SMAD family member 7 (SMAD7) (UniProt O15105); test: co-IP; HEK293T cells transfected with both partners; TNE lysis buffer (50 mM Tris-HCl pH 7.4, 1 mM EDTA, 150 mM NaCl, 1% NP40); anti-FLAG agarose beads, 30 min, 4 °C; western blotting

Molecule: OVOL1 (endogenous) (from UniProt O14753 1-267)
binding [1]: binds

Molecule: HA-SMAD7 (from UniProt O15105 1-426)
binding [2]: binds

Molecule: OVOL2 (from UniProt Q9BRP0 1-275)
binding [3]: binds weakly
binding [4]: binds
binding [5]: binds
binding [6]: binds

B1: RNF12 (enzyme, UniProt Q9NVW2 1-624)
chain: MENSDSNDKGSGDQSAAQRRSQMDRLDREEAFYQFVNNLSEEDYRLMRDNNLLGTPGESTEEELLRRLQQIKEGPPPQNSDENRGGDSSDDVSNGDSIIDWLNSVRQTGNTTRSGQRGNQSWRAVSRTNPNSGDFRFSLEINVNRNNGSQNSENENEPSARRSSGENVENNSQRQVENPRSESTSARPSRSERNSTEALTEVPPTRGQRRARSRSPDHRRTRARAERSRSPLHPMSEIPRRSHHSISSQTFEHPLVNETEGSSRTRHHVTLRQQISGPELLSRGLFAASGTRNASQGAGSSDTAASGESTGSGQRPPTIVLDLQVRRVRPGEYRQRDSIASRTRSRSQTPNNTVTYESERGGFRRTFSRSERAGVRTYVSTIRIPIRRILNTGLSETTSVAIQTMLRQIMTGFGELSYFMYSDSDSEPTGSVSNRNMERAESRSGRGGSGGGSSSGSSSSSSSSSSSSSSSSSSSSPSSSSGGESSETSSDLFEGSNEGSSSSGSSGARREGRHRAPVTFDESGSLPFLSLAQFFLLNEDDDDQPRGLTKEQIDNLAMRSFGENDALKTCSVCITEYTEGNKLRKLPCSHEYHVHCIDRWLSENSTCPICRRAVLASGNRESVV
binding [7]: binds

The next lines start with the values.

binding [7]: binds
binding [8]: binds
Molecule: Ovo-like transcriptional repressor 1 (OVOL1) (from UniProt O14753 1-267)

binding [7]: binds
B2: USP26 (enzyme, UniProt Q9BXU7 1-913)
chain: MAALFLRGFVQIGNCKTGISKSKEAFIEAVERKKKDRLVLYFKSGKYSTFRLSDNIQNVVLKSYRGNQNHLHLTLQNNNGLFIEGLSSTDAEQLKIFLDRVHQNEVQPPVRPGKGGSVFSSTTQKEINKTSFHKVDEKSSSKSFEIAKGSGTGVLQRMPLLTSKLTLTCGELSENQHKKRKRMLSSSSEMNEEFLKENNSVEYKKSKADCSRCVSYNREKQLKLKELEENKKLECESSCIMNATGNPYLDDIGLLQALTEKMVLVFLLQQGYSDGYTKWDKLKLFFELFPEKICHGLPNLGNTCYMNAVLQSLLSIPSFADDLLNQSFPWGKIPLNALTMCLARLLFFKDTYNIEIKEMLLLNLKKAISAAAEIFHGNAQNDAHEFLAHCLDQLKDNMEKLNTIWKPKSEFGEDNFPKQVFADDPDTSGFSCPVITNFELELLHSIACKACGQVILKTELNNYLSINLPQRIKAHPSSIQSTFDLFFGAEELEYKCAKCEHKTSVGVHSFSRLPRILIVHLKRYSLNEFCALKKNDQEVIISKYLKVSSHCNEGTRPPLPLSEDGEITDFQLLKVIRKMTSGNISVSWPATKESKDILAPHIGSDKESEQKKGQTVFKGASRRQQQKYLGKNSKPNELESVYSGDRAFIEKEPLAHLMTYLEDTSLCQFHKAGGKPASSPGTPLSKVDFQTVPENPKRKKYVKTSKFVAFDRIINPTKDLYEDKNIRIPERFQKVSEQTQQCDGMRICEQAPQQALPQSFPKPGTQGHTKNLLRPTKLNLQKSNRNSLLALGSNKNPRNKDILDKIKSKAKETKRNDDKGDHTYRLISVVSHLGKTLKSGHYICDAYDFEKQIWFTYDDMRVLGIQEAQMQEDRRCTGYIFFYMHNEIFEEMLKREENAQLNSKEVEETLQKE

binding [7]: binds
B3: ARKADIA (enzyme, UniProt Q6ZNA4 1-994)
chain: MSQWTPEYNELYTLKVDMKSEIPSDAPKTQESLKGILLHPEPIGAAKSFPAGVEMINSKVGNEFSHLCDDSQKQEKEMNGNQQEQEKSLVVRKKRKSQQAGPSYVQNCVKENQGILGLRQHLGTPSDEDNDSSFSDCLSSPSSSLHFGDSDTVTSDEDKEVSVRHSQTILNAKSRSHSARSHKWPRTETESVSGLLMKRPCLHGSSLRRLPCRKRFVKNNSSQRTQKQKERILMQRKKREVLARRKYALLPSSSSSSENDLSSESSSSSSTEGEEDLFVSASENHQNNPAVPSGSIDEDVVVIEASSTPQVTANEEINVTSTDSEVEIVTVGESYRSRSTLGHSRSHWSQGSSSHASRPQEPRNRSRISTVIQPLRQNAAEVVDLTVDEDEPTVVPTTSARMESQATSASINNSNPSTSEQASDTASAVTSSQPSTVSETSATLTSNSTTGTSIGDDSRRTTSSAVTETGPPAMPRLPSCCPQHSPCGGSSQNHHALGHPHTSCFQQHGHHFQHHHHHHHTPHPAVPVSPSFSDPACPVERPPQVQAPCGANSSSGTSYHEQQALPVDLSNSGIRSHGSGSFHGASAFDPCCPVSSSRAAIFGHQAAAAAPSQPLSSIDGYGSSMVAQPQPQPPPQPSLSSCRHYMPPPYASLTRPLHHQASACPHSHGNPPPQTQPPPQVDYVIPHPVHAFHSQISSHATSHPVAPPPPTHLASTAAPIPQHLPPTHQPISHHIPATAPPAQRLHPHEVMQRMEVQRRRMMQHPTRAHERPPPHPHRMHPNYGHGHHIHVPQTMSSHPRQAPERSAWELGIEAGVTAATYTPGALHPHLAHYHAPPRLHHLQLGALPLMVPDMAGYPHIRYISSGLDGTSFRGPFRGNFEELIHLEERLGNVNRGASQGTIERCTYPHKYKKVTTDWFSQRKLHCKQDGEEGTEEDTEEKCTICLSILEEGEDVRRLPCMHLFHQVCVDQWLITNKKCPICRVDIEAQLPSES
